Laboratory results published in PubChem BioAssay AID2685 (National Center for Advancing Translational Sciences (NCATS), 2010).
The other results are listed elsewhere or left out. Shown are side measurements of this screen, not its main read-out; they come without a call. Most of these compounds were active or inconclusive in the main read-out, so they are no random draw. The note in brackets gives the kind of curve behind each potency; many fits are weak.

Assay: qHTS Assay for Lipid Storage Modulators in Drosophila S3 Cells;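 on cell number change: cells counted by Cell Tracker Red CMTPX staining in the red channel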
Conditions: BODIPY lipid droplet fluorescence, 18-24 h; for cell number change: measured here: cell count max response, cells fed with added oleic acid
Procedure, shortened: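 Drosophila S3 cells got compounds at several concentrations plus oleic acid (400 uM solution). Laser-scanning cytometry with 488 nm excitation read lipid droplets at 500-530 nm and cells at 575-640 nm. Percent activity was relative to 20 uM Triacsin C.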

[1] = measured here: lipid fluorescence (Fed channel) AC50, cells fed with added oleic acid
[2] = measured here: cell number channel AC50, cells fed with added oleic acid

Row | SMILES | cell number change | AC50 [1] | AC50 [2]
1 | CCn1c(SCC(=O)Nc2ccc(Br)cc2)nc2sc3c(c2c1=O)CCN(C)C3 | 1.19% | 0.146 µM [falling, partial curve, poor fit] | –
2 | NS(=O)(=O)c1ccc(CCNC(=O)COC(=O)Cc2ccc([N+](=O)[O-])cc2)cc1 | 18.1% | – | 2.91 µM [falling, single point]
3 | O=C(C1=C(O)C(=O)N(CCN2CCOCC2)C1c1ccco1)c1cc2ccccc2o1 (stereo unspecified) | 1.13% | 29.1 µM [rising, single point] | –
4 | Cc1cc(C(=O)Nc2ccon2)c(C)o1 | 13.7% | 0.116 µM [rising, full curve, poor fit] | 6.51 µM [rising, single point]
5 | O=C(COc1cccc(NC(=O)c2cccc([N+](=O)[O-])c2)c1)c1ccc(F)cc1 | -15.2% | 0.326 µM [rising, single point] | –
6 | CC(C)OCCCN1C(=O)c2ccccc2C1C(=O)NC1CCCCC1 (stereo unspecified) | -15.2% | 0.651 µM [rising, full curve] | –
7 | Cc1cccc(NC(=O)C2(c3ccccc3)CC2(Cl)Cl)c1 (stereo unspecified) | 7.7% | 25.9 µM [rising, single point] | –
8 | COc1ccc(OC)c(C(c2c(O)nc(SC)[nH]c2=O)c2c(O)nc(SC)[nH]c2=O)c1 | 4.23% | 0.13 µM [rising, full curve, poor fit] | –
9 | Cn1c(C(=O)N2CCCC(C(=O)NCc3ccc4c(c3)OCO4)C2)cc2sccc21 (stereo unspecified) | -36.6% | 20.6 µM [falling, single point] | 29.1 µM [falling, single point]
10 | Cc1ccc2nc(NC(=O)CN(C)S(=O)(=O)c3ccc(Br)s3)sc2c1 | 15.1% | – | 3.66 µM [rising, single point]
11 | CSc1ncccc1C(=O)NC1CC(C)(C)Cc2c1cnn2-c1ccccc1C (stereo unspecified) | 2.05% | 0.184 µM [falling, full curve] | 6.51 µM [falling, single point]
12 | O=C(/C=C/c1cccnc1)c1ccc(NC(=O)c2cccc(Br)c2)cc1 | – | 4.61 µM [falling, single point] | –
13 | Cc1ccc(-c2[nH]c(-c3ccc(Cl)cc3)nc2SCC(=O)NCC2CCCO2)cc1 (stereo unspecified) | -16.7% | – | –
14 | O=C(O)c1ccccc1C(=O)OCc1c(-c2ccccc2)ncc2ccccc12 | -2.07% | 0.146 µM [falling, single point] | 0.164 µM [falling, full curve]
15 | C/C(Cl)=C\Cn1c(=O)c2c(nc3n2CCS3)n(C)c1=O | -19.5% | – | –
16 | CC(=O)Nc1ccc(S(=O)(=O)n2cnc(C)c2)cc1 | -0.759% | – | –
17 | O=c1[nH]c(C2CCN(S(=O)(=O)c3ccc(S(=O)(=O)NC4CC4)cc3)CC2)nc2c1nnn2Cc1ccccc1 | -8.97% | – | –
18 | CCC(C)c1ccc(OCCCCN2CCOCC2)cc1 (stereo unspecified) | 109% | – | 20.6 µM [rising, single point]
19 | CN(C)c1ccc(C(=S)N2CCN(S(=O)(=O)c3ccccc3)CC2)cc1 | -9.17% | 29.1 µM [rising, single point] | –
20 | Cn1c(Cl)c(/C=N/OC(=O)C2CC2)c2ccccc21 | – | 0.794 µM [rising, single point] | –

Row | SMILES | cell number change | AC50 [1] | AC50 [2]
21 | COc1ccc(OC)c(S(=O)(=O)N(C)CC(=O)N2CCOCC2)c1 | 3.47% | 29.1 µM [rising, single point] | –
22 | COCCNC(=O)c1ccc(CS(=O)(=O)c2ccc(Cl)cc2)o1 | -35.4% | – | 29.1 µM [falling, single point]
23 | CC(=O)NC(Cc1c[nH]c2ccccc12)C(=O)N1CCc2ccccc2C1 (stereo unspecified) | 33.3% | 29.1 µM [rising, single point] | 18.4 µM [rising, single point]
24 | Cc1ccc([N+](=O)[O-])cc1N=C(c1cccc([N+](=O)[O-])c1)N1CCOCC1 | -31% | 29.1 µM [falling, single point] | 0.184 µM [falling, full curve, poor fit]
25 | COCc1[nH][nH]c(=O)c1C=Nc1ccc(OC(F)(F)F)cc1 | 13.8% | – | –
26 | COc1ccc(CCNC(=O)C2CCN(C(=O)c3ccccc3)CC2)cc1 | -7.14% | – | –
27 | O=C(N/N=C/c1ccc(O)cc1O)c1ccncc1 | 87.3% | 6.51 µM [rising, partial curve] | 3.26 µM [rising, full curve]
28 | COCCN(C(=O)COC(=O)CCc1ccccc1)c1c(N)n(Cc2ccccc2)c(=O)[nH]c1=O | -13.1% | 23.1 µM [rising, partial curve] | –
29 | FC(F)(F)c1ccc(Oc2ccc3c(C(F)(F)F)cc(C(F)(F)F)nc3n2)cc1 | -7.16% | – | –
30 | Cc1ccc(S(=O)(=O)N/N=C/c2cccc3c2OCCO3)cc1 | 10.3% | – | 4.61 µM [falling, single point]
31 | Cc1noc(/C=C/N(C)C)c1S(=O)(=O)N1CCCC(C(=O)Nc2ccccc2F)C1 (stereo unspecified) | -42.4% | 20.6 µM [falling, single point] | 2.31 µM [falling, partial curve]
32 | CC(C)(CNC(=O)C1c2ccccc2-c2ccccc21)N1CCOCC1 | 9.52% | – | –
33 | COc1cc2cc(C(c3nnnn3C(C)(C)C)N3CCc4ccccc4C3)c(=O)[nH]c2cc1OC (stereo unspecified) | 17.3% | 7.31 µM [rising, partial curve] | –
34 | COc1ccccc1/C=N/n1cnnc1 | 32.5% | – | 9.2 µM [rising, partial curve]
35 | Cn1c(=O)[nH]c(=O)c2c1nc1n2CC(COc2ccc3ccccc3c2)O1 (stereo unspecified) | 50.1% | 13 µM [rising, partial curve] | 3.66 µM [rising, partial curve]
36 | O=C(c1ccc(-c2nnc(Nc3cccc(Cl)c3)c3ccccc23)cc1)N1C[C@H]2C[C@H](C1)c1cccc(=O)n1C2 | 57.6% | – | –
37 | O=C(COC(=O)c1ccccn1)NCc1cccc(Cl)c1 | -12% | – | –
38 | CC(Oc1ccccc1)C(=O)Nc1ccc(NC(=O)c2ccccc2)cc1 (stereo unspecified) | -20% | 0.00651 µM [falling, full curve, poor fit] | –
39 | CC(=O)c1ccc(N(CC(=O)NC2CCCC2)C(=O)CCC(=O)Nc2cc(C)on2)cc1 | 28.2% | – | 3.66 µM [rising, partial curve, poor fit]
40 | O=C(Oc1cccc([N+](=O)[O-])c1)N1CCCCC1 | 34.4% | 25.9 µM [rising, single point] | 1.16 µM [rising, full curve, poor fit]

Row | SMILES | cell number change | AC50 [1] | AC50 [2]
41 | c1cncc(-c2ccc3[nH]ccc3c2)c1 | -48.6% | 29.1 µM [falling, single point] | 0.92 µM [falling, full curve, poor fit]
42 | N#C/C(=N\Nc1ccc([N+](=O)[O-])cc1)C(N)=S | -4.08% | 0.13 µM [falling, full curve, poor fit] | –
43 | O=C(O)CSCc1cnn(-c2ccccc2)c1-n1cccc1 | -39.2% | – | 32.6 µM [falling, single point]
44 | S=C(Nc1ccccc1)c1nc2ccccc2s1 | -4.27% | 8.2 µM [falling, partial curve] | 6.51 µM [falling, single point]
45 | Cc1nc(C)c2c(=O)cc(-c3ccccc3)[nH]c2n1 | -3.58% | 5.8 µM [falling, single point] | –
46 | O=C(COC(=O)c1ccc(N2CCCC2=O)cc1)c1ccccc1 | 16.2% | – | –
47 | Cc1ccc(C(=O)Nc2c3c(nn2C(C)(C)C)CS(=O)(=O)C3)cc1[N+](=O)[O-] | -1.21% | – | –
48 | COCCn1c(SCCN2CCOCC2)nc2c1c(=O)[nH]c(=O)n2C | -17.9% | 0.206 µM [falling, full curve, poor fit] | –
49 | Cc1nn(C)c(C)c1S(=O)(=O)N1CCC(C(=O)Nc2ccc3c(c2)OCCO3)CC1 | 17.3% | 0.82 µM [rising, full curve, poor fit] | –
50 | CCN(CC)CCCC(C)NC(=O)c1ccc(C(F)(F)F)cc1 (stereo unspecified) | -3.39% | – | –
51 | COc1ccc2[nH]c(C)c(CCN3C(=O)OC(C)(C)C3(C)O)c2c1 (stereo unspecified) | 40.7% | – | 23.1 µM [rising, single point]
52 | C=CCn1c(SCC(=O)NCc2ccc3c(c2)OCO3)nnc1C1COc2ccccc2O1 (stereo unspecified) | -60.9% | – | 23.1 µM [falling, partial curve]
53 | COc1ccc(CC(NC(C)=O)C(=O)NC2CCN(C(=O)c3cc(OC)c(OC)c(OC)c3)CC2)cc1 (stereo unspecified) | 14.8% | 4.11 µM [rising, single point] | –
54 | COc1ccc(Oc2ncnc3c2ncn3Cc2ccccc2)cc1 | – | 0.651 µM [rising, full curve] | 0.326 µM [rising, full curve, poor fit]
55 | COc1nnnc2c1sc1nc(N3CCOCC3)c3c(c12)CC(C)(C)OC3 | -10.7% | – | –
56 | CCCc1[nH]nc2c1C(c1ccc(O)c(OC)c1)C(C#N)=C(N)O2 (stereo unspecified) | -9.32% | 29.1 µM [falling, single point] | –
57 | Cc1ccc(NC(=O)C2CC(=O)n3c(nc4ccccc43)N2)cc1 (stereo unspecified) | -13.5% | 6.51 µM [rising, partial curve, poor fit] | 5.8 µM [rising, partial curve, poor fit]
58 | CC1CCN(Cc2nnnn2CCCC(=O)NCCN2CCOCC2)CC1 | 17.3% | 18.4 µM [rising, single point] | –
59 | COc1cc(-c2nnc(SCC(=O)N(Cc3ccccc3)C(C)(C)C)o2)cc(OC)c1OC | -9.05% | – | –
60 | Cc1ccc(OCC(=O)c2c[nH]c3ccccc23)c([N+](=O)[O-])n1 | -29.2% | – | 0.731 µM [rising, single point]
